Among the data in doi:10.1101/2023.07.11.548599 are binding values, retold here.

Protein sequences, listed by entry. Tags and fused reporters are not part of them. Lines headed by an entry give the natural chain unless they say otherwise; changes in a name come on top.
UniProt A1ZBF8: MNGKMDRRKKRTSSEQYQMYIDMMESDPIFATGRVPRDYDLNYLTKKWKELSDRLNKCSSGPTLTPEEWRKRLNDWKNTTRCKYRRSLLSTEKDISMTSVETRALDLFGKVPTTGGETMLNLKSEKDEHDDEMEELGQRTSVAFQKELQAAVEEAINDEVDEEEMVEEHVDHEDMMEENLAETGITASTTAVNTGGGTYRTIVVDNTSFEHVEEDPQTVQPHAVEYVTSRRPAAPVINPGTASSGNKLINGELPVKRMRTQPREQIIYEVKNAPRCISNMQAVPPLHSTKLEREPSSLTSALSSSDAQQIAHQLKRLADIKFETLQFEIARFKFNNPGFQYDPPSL
UniProt Q9VCH7: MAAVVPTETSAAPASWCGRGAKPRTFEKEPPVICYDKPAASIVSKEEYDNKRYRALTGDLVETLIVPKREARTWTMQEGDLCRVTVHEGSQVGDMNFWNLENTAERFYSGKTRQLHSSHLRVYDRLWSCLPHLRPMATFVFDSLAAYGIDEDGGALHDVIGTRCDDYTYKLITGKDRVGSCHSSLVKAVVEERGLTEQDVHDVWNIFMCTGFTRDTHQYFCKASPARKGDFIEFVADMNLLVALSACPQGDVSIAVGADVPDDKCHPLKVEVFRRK
UniProt Q9VGK3: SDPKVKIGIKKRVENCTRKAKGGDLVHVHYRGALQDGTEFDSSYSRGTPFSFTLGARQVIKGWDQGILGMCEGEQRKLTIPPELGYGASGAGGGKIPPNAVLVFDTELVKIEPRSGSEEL

Common to all, as to assay: affinity purification with mass spectrometry
Assay [1] addresses T1, GFP-D1 (D. melanogaster) (UniProt P22058).
T1 sequence: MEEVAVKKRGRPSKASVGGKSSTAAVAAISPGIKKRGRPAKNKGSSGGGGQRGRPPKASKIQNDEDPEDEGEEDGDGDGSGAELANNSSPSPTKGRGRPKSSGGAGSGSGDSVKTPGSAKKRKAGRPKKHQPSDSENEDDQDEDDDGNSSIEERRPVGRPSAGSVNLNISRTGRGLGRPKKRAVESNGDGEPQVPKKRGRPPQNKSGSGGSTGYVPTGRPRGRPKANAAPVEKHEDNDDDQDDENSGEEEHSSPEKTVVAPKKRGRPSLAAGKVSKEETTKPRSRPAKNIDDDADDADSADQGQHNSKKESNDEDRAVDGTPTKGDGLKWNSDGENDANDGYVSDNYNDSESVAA

The target of assay [2] is T2, GFP-Piwi (D. melanogaster) (UniProt Q9VKM1).
T2 sequence: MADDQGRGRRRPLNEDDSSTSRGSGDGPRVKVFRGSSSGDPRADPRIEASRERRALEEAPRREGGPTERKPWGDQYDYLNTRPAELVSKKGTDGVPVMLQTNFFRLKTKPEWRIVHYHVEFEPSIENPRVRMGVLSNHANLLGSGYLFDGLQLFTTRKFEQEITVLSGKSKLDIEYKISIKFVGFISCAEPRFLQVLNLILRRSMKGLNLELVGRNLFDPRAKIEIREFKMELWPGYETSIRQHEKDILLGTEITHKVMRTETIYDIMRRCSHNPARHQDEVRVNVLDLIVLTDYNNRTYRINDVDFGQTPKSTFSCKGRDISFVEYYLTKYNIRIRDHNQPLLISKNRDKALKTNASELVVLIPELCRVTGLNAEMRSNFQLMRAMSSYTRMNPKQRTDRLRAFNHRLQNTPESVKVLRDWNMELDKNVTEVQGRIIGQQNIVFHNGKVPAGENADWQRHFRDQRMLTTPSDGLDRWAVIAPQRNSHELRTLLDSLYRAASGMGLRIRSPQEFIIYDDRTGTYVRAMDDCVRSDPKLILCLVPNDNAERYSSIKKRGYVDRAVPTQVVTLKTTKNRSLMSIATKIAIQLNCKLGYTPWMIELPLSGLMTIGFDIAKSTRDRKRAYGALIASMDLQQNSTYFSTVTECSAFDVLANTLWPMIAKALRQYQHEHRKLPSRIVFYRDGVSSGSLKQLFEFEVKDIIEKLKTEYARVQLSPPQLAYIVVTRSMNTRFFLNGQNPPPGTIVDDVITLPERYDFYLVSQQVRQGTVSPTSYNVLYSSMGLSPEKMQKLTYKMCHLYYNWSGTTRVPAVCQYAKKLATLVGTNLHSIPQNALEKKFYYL

The target in assay [3] is GFP-Prod (D. melanogaster) (UniProt A1ZBF8).
Assay [4] deals with T1, GFP-D1 (D. melanogaster). The source holds these as a separate data set.
The target in assay [5] is GFP-Prod (D. melanogaster) (UniProt A1ZBF8). This is another data set of the same source.

Like-named read-outs stand apart in the source and are kept apart here. No constants are given. Whether binding was seen depends on the method and setting. In cells and extracts the contact can be indirect. A yes stands for co-enrichment or nearness to the bait. Other partners may have been found. For part of these data: Tags and fused reporters may be left off the sequences shown.

Take CG10208 (from UniProt Q9VCH7): the binding entry (with GFP-D1 (D. melanogaster) [1]; in assay [2]; in assay [3]) was “binds” in each case.
On to CG14715 (from UniProt Q9VGK3), for which the binding entry (in the assay with GFP-D1 (D. melanogaster) [1]; in assay [2]; in assay [3]) was “binds” each time.
Take “Female independent of transformer (Fit) (D. melanogaster (endogenous in embryos))”: the binding entry (in the assay with GFP-D1 (D. melanogaster) [1]; in assay [2]) was “binds” throughout.
As to “Ugt35D1 (D. melanogaster (endogenous in embryos))”, the binding entry (with GFP-D1 (D. melanogaster) [1]; in assay [2]) was “binds” each time.

B1: chrac-16 (protein, UniProt Q9V452 1-140)
chain: MGEPRSQPPVERPPTAETFLPLSRVRTIMKSSMDTGLITNEVLFLMTKCTELFVRHLAGAAYTEEFGQRPGEALKYEHLSQVVNKNKNLEFLLQIVPQKIRVHQFQEMLRLNRSAGSDDDDDDDDDDDEEESESESESDE
For the molecule B1, the binding entry (with GFP-D1 (D. melanogaster) [1]; in assay [3]) was “binds” each time.

B2: CG5504 (protein, UniProt Q27237 63-520)
chain: AKDYYATLGVAKNANGKDIKKAYYQLAKKYHPDTNKEDPDAGRKFQEVSEAYEVLSDEQKRREYDTYGQTAENIGRQGGGFPGGGAGGFGPEGFSQSWQFRSSIDPEELFRKIFGEGNFRTNSFDDFADSKFGFGQAQEMVMDLTFAQAARGVNKDVNVNVVDQCPKCAGTKCEPGTKPGRCQYCNGTGFETVSTGPFVMRSTCRYCQGTRQHIKYPCSECEGKGRTVQRRKVTVPVPAGIENGQTVRMQVGSKELFVTFRVERSDYFRREGADVHTDAAISLAQAVLGGTVRVQGVYEDQWINVEPGTSSHHKIMLRGKGLKRVNAHGHGDHYVHVKITVPSAKKLDKKRLALIEAYAELEEDTPGQIHGIANRKDGSKQATAGASEEPGAGAAAKASAAAAGSGASKPGPGAEKSEGKDQWTDNEKTKAKEGGGSGSGQGDGGGGGFISKIKSMFN
For B2, the binding entry (with GFP-D1 (D. melanogaster) [4]; in assay [5]; with GFP-D1 (D. melanogaster) [1]; in assay [3]) was “binds” throughout.

B3: Fancd2 (protein, UniProt Q8MYL1 1-1478)
chain: MYKQFKKRSKKPLNTIDENATIKVPRLAETTTNISVESSSGGSEENIPASQEHTQRFLSQHSVILAATLGRTQSSSRNIATLSRQPNNFFELVLVRAGVQLDQGDSLILACDHVPIVSKLREIFTSASSYTDKMETFKTGLNAAMAPGSKLVQKLLTGCTVDAAGEEQIYQSQNSMFMNFLMIDFMRDACVEVLLNKIEEVAKSDRVIMGKAAIPLPLLPLMLTQLRYLTASHKVEIYSRIEVIFNRATESAKLDIIANAELILDASMHDEFVELLNINYSSTEDLFHMTTVQTLGNLSLSDRTQAKLRVRILDFATSGQCSDAILPHLIRLLLNVLKIDTDDSVRDLIGSLRGIFNWRHTNETEKISASEDSKKSQLELFGFLELGLIRSKKFYQACQRSSASVPAAEFTSFDMILLLLLIHVNEDNSLYIENILRRRIKLEHITVSILEEIRQHYRHILEQHITTLMNILHDFMREKNRIVSDFAKSSYSILFKIFNSIQKNILKKLLELTCDKSSPHLTTMALELLRELQRKSAKDVQNCATLLIPMLDRISDLSLTQTRVAMDLLCHVAFPDPNLSPCLQLQEQVDMVVKKQLINSIDNIKKQGIIGCVQLIDAMARIANNGVDRDEFIASVENVDSLPDGRGKMAANLIIRTEASIGNSTESLALFFEELATVFNQRNEGTSGCELDNQFIAWACDLVTFRFQASFVTENVPETLKGIKLEYQLNINELDDTDANTESDVLNIGINISKLVLSPKVKACDSIYVLAPLFNYVRVLYKHRHQDSLESINALLGCAIVLPSFFEDDNYVSVFENFEAEQQKDILSIYFHTVNWMRVSISAFASQRDPPTRRRVLSRLGELIRIEQRMKPLLARAPVDFVAPPYQFLTNVKLSNQNQKRPGPKPAAKLNATLPEPDLTGNQPSIADFTIKVGQCKTVKTKTDFEQMYGPRERYRPMEVEIIMLLVEQKFVLNHQLEEEQMGEFLGLLELRFLLEDVVQKLEAAVLRHHDSYDADSFRPHLAKPEDFICDLLPCLHEVNNHLITLGEAIDNQLTEVSHVYSNLDLFKDQFCYIKSCFGLCVRLFALYFAWSEWSDKSQEQLLHKSLLKLQPKTQWKRLEKQSVPQLANLTFQYFLKYEKSVLNLSTAVHLHRLLCNLLKLGSLQSDASQPRFQQAEDLRILCGTLLRRKWFHYSGTLDKGGQCNIYLDELVKGFLKKSNAKSQTELLTELVKQCSILNTKDKALTSFPNFKKANFPLLFRGLCEVLIHSLSGQVSVDSRGDKLKLWESAVDLLNGLLSIVQQVEQPRNFGLFLKHSLLFLKLLLQHGMSALESIVREDPERLTRFLHELQKVTRFLHQLCCHSKSIKNTAIISYIPSLRETIETLVFRVKALLAANNCHSAFHMGNMINRDLHGDSIITPRSSFAGEENSDDELPADDTSVDETVLGDDMGITAVSVSTRPSDGSRRSKSSSRSKCF
For B3, the binding result (with GFP-D1 (D. melanogaster) [1]; in assay [3]) was “binds” in each case.

B4: Piwi (P-element induced wimpy testes) (protein, UniProt Q9VKM1 1-843)
chain: MADDQGRGRRRPLNEDDSSTSRGSGDGPRVKVFRGSSSGDPRADPRIEASRERRALEEAPRREGGPTERKPWGDQYDYLNTRPAELVSKKGTDGVPVMLQTNFFRLKTKPEWRIVHYHVEFEPSIENPRVRMGVLSNHANLLGSGYLFDGLQLFTTRKFEQEITVLSGKSKLDIEYKISIKFVGFISCAEPRFLQVLNLILRRSMKGLNLELVGRNLFDPRAKIEIREFKMELWPGYETSIRQHEKDILLGTEITHKVMRTETIYDIMRRCSHNPARHQDEVRVNVLDLIVLTDYNNRTYRINDVDFGQTPKSTFSCKGRDISFVEYYLTKYNIRIRDHNQPLLISKNRDKALKTNASELVVLIPELCRVTGLNAEMRSNFQLMRAMSSYTRMNPKQRTDRLRAFNHRLQNTPESVKVLRDWNMELDKNVTEVQGRIIGQQNIVFHNGKVPAGENADWQRHFRDQRMLTTPSDGLDRWAVIAPQRNSHELRTLLDSLYRAASGMGLRIRSPQEFIIYDDRTGTYVRAMDDCVRSDPKLILCLVPNDNAERYSSIKKRGYVDRAVPTQVVTLKTTKNRSLMSIATKIAIQLNCKLGYTPWMIELPLSGLMTIGFDIAKSTRDRKRAYGALIASMDLQQNSTYFSTVTECSAFDVLANTLWPMIAKALRQYQHEHRKLPSRIVFYRDGVSSGSLKQLFEFEVKDIIEKLKTEYARVQLSPPQLAYIVVTRSMNTRFFLNGQNPPPGTIVDDVITLPERYDFYLVSQQVRQGTVSPTSYNVLYSSMGLSPEKMQKLTYKMCHLYYNWSGTTRVPAVCQYAKKLATLVGTNLHSIPQNALEKKFYYL
Consider B4, for which the binding result in assay [3] was “binds”.

B5: Maelstrom (Mael) (protein, UniProt Q9VNS0 1-459)
chain: MAPKKHSGFMMFVNEWRNRNAEGRRMTLAQAVSHCGTIWEKMNTQQRGPYNSGGKDANVAQRAKRESSNGHGQVDKAQREATESLMDMKRTIERLVLNAKMSHDLENAKFVFVAFNYFTKALTTDVYVPAEFAACEYSLKEGIRSIYSTMIDPGQIIFGQGSDALLHSSTTHDLPLPPNALGEKNMTKLYRNIVDYLSKCQGKGKTLVVFTPAENITMVKSCFRYLECDDDFRDGGEKIQVFDIQYLLFILKKEVMNVADLNDEKINKFATDAFFKKDFFEFTAGIACQYHEDNDRTKYCTQSMVTRWAYTFTDFMCGDLAITVQPGKHIPAQTKPNYLIISSYASSLDHESSFDSFYSLPGSGVKKESQPEACSLSSSRLSVASSSYKPIDHTSFAANLNEVSEFPSLGMRNSSKHHGIAASAQREWNARNLPTHSRLIRKVSDNDFSVNGADGKLKK
Consider B5, for which the binding entry (with GFP-D1 (D. melanogaster) [1]; in assay [3]) was “binds” in each case.
